Experimental data as given in patent US10774084B2, “Adenine derivatives and their use as UV-photoprotective agents” (UNIVERZITA PALACKEHO V OLOMOUCI, priority 2015, dated 2020).
At least one compound was matched to its structure with a doubt left.

Test system: Caenorhabditis elegans strain fem-1/HT17
Test: Lifespan of Caenorhabditis elegans
Format: in vivo
Conditions: Log-Rank test, Bonferroni correction
Source text: Caenorhabditis elegans is a model organism used for identification of compounds with possible beneficial effect on human aging and age-related diseases. The list of compounds that prolong the lifespan of C. elegans and are known to have beneficial effect on human health includes resveratrol, curcumin and many others. Some substances that prolong the lifespan of worms are also used in skin rejuvenating and anti-aging cosmetics, for example vitamin E, coenzyme Q10, green tea or pomegranade extracts and cytokinin kinetin. The Caenorhabditis elegans strain used in this experiment was fem-1/HT17. This strain has a heat-inducible mutation which causes all worms to develop into females when cultivated in 25° C. (13). That prevents further reproduction and contamination of the experiment with progeny. Compounds dissolved in DMSO (100 mM stock solutions) were added into fresh NGM (nematode growth medium) to the final concentration of 10 and 50 or 100 μM and pipetted onto a Petri dish. Medium with DMSO vehiculum alone and non-treated medium were used as negative control. […] Pictures were analyzed in Fiji similarly as described here. […] The overall results were then analyzed in programs OASIS and ED50v10. The statistical significance was evaluated by Log-Rank test and P-values were corrected by Bonferroni correction.

## Clc1nc(NCc2ccco2)c2ncn(C3CCCO3)c2n1 (stereo not shown) [Compound 15, 2-chloro-6-furfurylamino-9-(tetrahydrofuran-2-yl)purine]
  effect on lifespan of worms (in words): significantly prolonged
